Source: publication PMC5577129
These are yes or no findings as the source states them, for the method shown. For some assays here: Binding calls can cover weak binding; strength is not graded here.

By UniProt entry, the sequences of proteins in these tests, tags left out. Where a name states a change or a piece, a line headed by the entry shows the natural chain unless it says otherwise.
UniProt Q5Q0E6: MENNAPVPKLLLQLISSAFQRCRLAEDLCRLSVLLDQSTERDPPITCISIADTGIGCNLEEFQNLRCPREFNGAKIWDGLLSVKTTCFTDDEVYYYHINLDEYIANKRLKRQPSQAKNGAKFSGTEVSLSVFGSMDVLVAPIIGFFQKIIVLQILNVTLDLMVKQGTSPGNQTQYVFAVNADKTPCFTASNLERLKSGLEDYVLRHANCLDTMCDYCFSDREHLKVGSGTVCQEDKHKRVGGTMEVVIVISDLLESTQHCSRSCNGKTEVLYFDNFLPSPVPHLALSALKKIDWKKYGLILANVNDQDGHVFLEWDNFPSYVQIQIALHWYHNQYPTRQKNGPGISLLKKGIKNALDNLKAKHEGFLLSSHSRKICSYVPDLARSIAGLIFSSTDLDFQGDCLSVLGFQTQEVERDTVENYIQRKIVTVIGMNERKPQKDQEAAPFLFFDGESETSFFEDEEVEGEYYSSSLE

Assays:
[1] = biological target: AtPRD2 (Arabidopsis thaliana); experiment: two-hybrid; Gal4 vector system (Clontech), pGBKT7 and pGADT7, yeast AH109; growth on SD/-Trp-Leu-His-Ade plates, 3 to 7 days, 30 °C; cells serially diluted
[2] = biological target: MTOPVIB (Arabidopsis thaliana) (UniProt Q5Q0E6); experiment: as above

B1: full length AtPRD1 (1–1330 aa) (protein, UniProt O23277 1-1330)
chain: MFFQHSQLQNSDHLLHESMADSNHQSLSPPCANGHRSTISLRDDQGGTFCLICFSNLVSDPRIPTVHVSYALHQLSIAISEPIFLRTLLSSHIHFLVSPLVHALSSIDDAPIAIQIMDMISLLCSVEESSIGEDFVERISDQLSSGALGWSRRQLHMLHCFGVLMSCENININSHIRDKEALVCQLVEGLQLPSEEIRGEILFALYKFSALQFTEQNVDGIEVLSLLCPKLLCLSLEALAKTQRDDVRLNCVALLTILAQQGLLANSHSNSASSMSLDEVDDDPMQTAENVAARPCLNVLFAEAIKGPLLSTDSEVQIKTLDLIFHYISQESTPSKQIQVMVEENVADYIFEILRLSECKDQVVNSCLRVLDLFSLAEHSFRKRLVIGFPSVIRVLHYVGEVPCHPFQIQTLKLISSCISDFPGIASSSQVQEIALVLKKMLERYYSQEMGLFPDAFAIICSVFVSLMKTPSFGETADVLTSLQESLRHSILASLSLPEKDSTQILHAVYLLNEVYVYCTASTSINKTICIELRHCVIDVCTSHLLPWFLSDVNEVNEEATLGIMETFHSILLQNSDIQAKEFAELLVSADWFSFSFGCLGNFCTDNMKQRIYLMLSSLVDILLEQKTGSHIRDALHCLPSDPQDLLFLLGQASSNNQELASCQSAALLIFHTSSIYNDRLADDKLVLASLEQYIILNKTSLICAISDSPALLNLVNLYGLCRSLQNERYQISYSLEAERIIFHLLNEYEWDLGSINIHLESLKWLFQQESISKSLIYQIQKISRNNLIGNEVHNVYGDGRQRSLTYWFAKLISEGDNYAATLLVNLLTQLAEKEEQENDVISILNLMNTIVSIFPTASNNLSMNGIGSVIHRLVSGFSNSSLGTSFRTLLLLVFNILTSVQPAVLMIDESWYAVSIKLLNFLSLRDTAIKQNHEDMVVIGILSLVLYHSSDGALVEASRNIVSNSYLVSAINTVVDVACSKGPALTQCQDETNIGEALAFTLLLYFFSLRSLQIVLAGAVDWQTFFGTSTSLETLPVVCIHCHNLCRLMHFGAPQIKLIASYCLLELLTGLSEQVDIKKEQLQCSSSYLKSMKAVLGGLVFCDDIRVATNSALCLSMILGWEDMEGRTEMLKTSSWYRFIAEEMSVSLAMPCSASSTYVNHHKPAVYLTVAMLRLKNKPVWLRTVFDESCISSMIQNLNGINISREIVILFRELMQAELLNSQQVTKLDRAFQECRKQMHRNGTRDETVEEQVQRKIPSIHDHSEFCNYLVHLMVSNSFGHPSESETYTQKKKQILDEMEQFSELISTREGRVSPIQEETRQMQTERIV
With B1 the binding [1] was “no binding” and the binding [2] was “binds”.
